The record followed here is paper PMC4695159.

By UniProt entry, the sequences of proteins in these tests, tags left out.
UniProt Q16665: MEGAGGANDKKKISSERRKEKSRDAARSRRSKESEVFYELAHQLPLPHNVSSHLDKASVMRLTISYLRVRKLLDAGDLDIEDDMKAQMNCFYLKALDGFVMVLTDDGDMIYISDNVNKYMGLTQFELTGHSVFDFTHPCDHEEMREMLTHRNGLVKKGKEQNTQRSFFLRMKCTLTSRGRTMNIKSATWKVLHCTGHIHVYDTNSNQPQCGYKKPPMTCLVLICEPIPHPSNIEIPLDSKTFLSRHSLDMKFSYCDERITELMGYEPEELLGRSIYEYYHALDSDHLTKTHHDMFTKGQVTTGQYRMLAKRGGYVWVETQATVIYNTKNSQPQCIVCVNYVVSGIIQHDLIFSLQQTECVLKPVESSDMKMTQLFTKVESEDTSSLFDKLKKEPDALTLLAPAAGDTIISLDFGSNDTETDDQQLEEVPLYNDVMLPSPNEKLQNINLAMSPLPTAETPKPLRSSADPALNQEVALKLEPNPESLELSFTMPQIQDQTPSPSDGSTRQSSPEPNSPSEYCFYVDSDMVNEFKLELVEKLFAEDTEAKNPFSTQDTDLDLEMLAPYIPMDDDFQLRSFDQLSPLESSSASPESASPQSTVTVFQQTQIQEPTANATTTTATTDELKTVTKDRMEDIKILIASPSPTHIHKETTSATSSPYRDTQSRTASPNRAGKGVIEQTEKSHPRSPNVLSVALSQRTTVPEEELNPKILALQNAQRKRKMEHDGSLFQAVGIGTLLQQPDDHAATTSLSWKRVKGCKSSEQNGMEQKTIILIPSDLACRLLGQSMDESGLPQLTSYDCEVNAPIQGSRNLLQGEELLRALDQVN
UniProt Q15788: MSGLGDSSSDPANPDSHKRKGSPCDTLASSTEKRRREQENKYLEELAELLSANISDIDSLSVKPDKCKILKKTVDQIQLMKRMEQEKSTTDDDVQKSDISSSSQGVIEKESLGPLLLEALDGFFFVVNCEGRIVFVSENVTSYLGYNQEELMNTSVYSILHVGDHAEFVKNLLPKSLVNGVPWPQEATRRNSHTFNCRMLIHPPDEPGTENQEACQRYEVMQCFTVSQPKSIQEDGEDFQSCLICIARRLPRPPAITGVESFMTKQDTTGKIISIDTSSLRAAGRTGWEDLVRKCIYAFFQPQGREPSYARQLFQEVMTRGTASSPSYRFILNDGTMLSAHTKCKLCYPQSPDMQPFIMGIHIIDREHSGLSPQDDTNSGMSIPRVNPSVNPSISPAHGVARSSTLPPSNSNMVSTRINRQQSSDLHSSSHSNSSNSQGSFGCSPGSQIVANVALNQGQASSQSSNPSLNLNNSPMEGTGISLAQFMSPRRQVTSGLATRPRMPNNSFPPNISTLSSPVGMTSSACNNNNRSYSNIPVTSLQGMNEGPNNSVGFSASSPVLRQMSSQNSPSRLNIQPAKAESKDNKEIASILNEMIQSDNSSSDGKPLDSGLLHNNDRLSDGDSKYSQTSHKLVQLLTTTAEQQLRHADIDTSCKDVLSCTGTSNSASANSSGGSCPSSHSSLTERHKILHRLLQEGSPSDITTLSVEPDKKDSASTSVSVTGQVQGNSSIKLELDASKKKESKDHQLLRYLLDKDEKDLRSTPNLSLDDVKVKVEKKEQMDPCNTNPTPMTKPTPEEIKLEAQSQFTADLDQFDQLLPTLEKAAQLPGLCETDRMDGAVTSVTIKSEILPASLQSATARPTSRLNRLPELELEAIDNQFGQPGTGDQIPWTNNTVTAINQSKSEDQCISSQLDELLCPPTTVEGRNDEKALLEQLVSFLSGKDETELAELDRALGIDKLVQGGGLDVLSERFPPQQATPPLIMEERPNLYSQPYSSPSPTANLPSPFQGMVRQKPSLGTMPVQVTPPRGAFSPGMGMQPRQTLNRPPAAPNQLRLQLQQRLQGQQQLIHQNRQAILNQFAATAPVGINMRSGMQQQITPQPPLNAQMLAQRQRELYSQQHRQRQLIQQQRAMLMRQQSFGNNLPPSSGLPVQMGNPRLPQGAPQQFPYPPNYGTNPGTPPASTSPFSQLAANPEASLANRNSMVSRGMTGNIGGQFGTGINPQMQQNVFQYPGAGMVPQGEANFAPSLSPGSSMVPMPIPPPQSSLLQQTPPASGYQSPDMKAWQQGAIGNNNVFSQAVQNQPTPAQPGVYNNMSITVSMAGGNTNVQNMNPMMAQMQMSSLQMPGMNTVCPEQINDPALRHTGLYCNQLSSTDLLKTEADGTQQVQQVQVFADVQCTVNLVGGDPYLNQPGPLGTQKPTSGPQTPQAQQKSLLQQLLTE

The target in this assay is HIF1α (human (endogenous in MDA-MB-231)) (UniProt Q16665). The experiment in a line: co-IP; MDA-MB-231 cell lysate; IP with NCOA1 antibody, HIF1α antibody or non-immune IgG as negative control; Western blot with NCOA1 antibody. For orientation: A western blot detects proteins with antibodies after separation by electrophoresis.

Results are given in words; binding and its absence hold for the method and conditions named. Binding seen in cells or lysates may run through a third protein. Some entries that bind do so weakly or less than the wild type.

“Nuclear receptor coactivator 1 (NCOA1) (from UniProt Q15788 1-1441)”: the binding entry is “binds”.
